Here are results for four substances from patent US10500286B2 (priority 2015, dated 2019).

Series [1] can be described thus: general procedure: Fmoc solid-phase peptide synthesis; Fmoc-Sieber-resin; PyBOP/DIPEA. As to conditions: whole synthesis; for isolated yield: scale of the general procedure 0.69 mmol.
A short description of series [2]: general procedure: Fmoc solid-phase peptide synthesis; Sieber resin; PyBOP/DIPEA. The note with it: whole synthesis.

In series [1], “Cys-Asp-βDap-PEG4-Asp-Tyr-Met-Gly-Trp-Met-Asp-Phe-NH2” returned an isolated mass of 20 mg and an isolated yield of 3%.
“Dap(Ac)-Asp-Cys-PEG2-Asp-Tyr-Met-Gly-Trp-Met-Asp-Phe-NH2” gave an isolated mass in series [2] of 30 mg. The substance also gave an isolated yield in series [1] of 7%.
For the substance “Dap(Ac)-Asp-Cys-PEG3-Asp-Tyr-Met-Gly-Trp-Met-Asp-Phe-NH2”, in series [1], the isolated mass was found to be 53 mg and the isolated yield came out at 9.5%.
Take “Dap(Ac)-Asp-Cys-PEG12-Asp-Tyr-Met-Gly-Trp-Met-Asp-Phe-NH2”: in series [1], the isolated mass worked out at 50 mg and the isolated yield amounted to 9%.
